{"source": "PubChem BioAssay AID1259424 (University of Nebraska Medical Center, 2018)", "aim": "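Seek colon cancer survival genes behaving like KSR1, using a six-gene signature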 (primary screen)", "system": "human HCT116 colon cancer cells", "reagents": "siRNA pool against human genes, 50 nM", "read-out": "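Log2 levels of six mRNAs (branched-DNA multiplex), adjusted by two reference genes and the non-targeting median, then scored against the average KSR1 knockdown pattern as Pearson r and euclidean distance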", "scale": "mean correlation with KSR1 profile: higher = expression change more like KSR1 knockdown; mean distance from KSR1 profile: higher = expression change less like KSR1 knockdown", "note": "Here is a random part of about 14,000 reagents tested. 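Higher correlation or smaller distance means closer resemblance to KSR1 loss; control wells, including KSR1 knockdowns, recur on many plates.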 Not all columns of the deposit are shown. Reagent sequences are not shown. Not stated in the record: the time to read-out."}
{"gene symbol": "ITPR3 (inositol 1,4,5-trisphosphate receptor type 3)", "mean correlation with KSR1 profile": 0.566, "mean distance from KSR1 profile": 1.68}
{"gene symbol": "PCDH11X (protocadherin 11 X-linked)", "mean correlation with KSR1 profile": 0.425, "mean distance from KSR1 profile": 1.69}
{"gene symbol": "SSTR4 (somatostatin receptor 4)", "mean correlation with KSR1 profile": 0.731, "mean distance from KSR1 profile": 1.1}
{"gene symbol": "PNRC2 (proline rich nuclear receptor coactivator 2)", "mean correlation with KSR1 profile": -0.282, "mean distance from KSR1 profile": 1.61}
{"gene symbol": "MMP16 (matrix metallopeptidase 16)", "mean correlation with KSR1 profile": -0.75, "mean distance from KSR1 profile": 1.58}
{"gene symbol": "PLAAT3 (phospholipase A and acyltransferase 3)", "mean correlation with KSR1 profile": -0.191, "mean distance from KSR1 profile": 2.34}
{"gene symbol": "FTH1 (ferritin heavy chain 1)", "mean correlation with KSR1 profile": 0.139, "mean distance from KSR1 profile": 1.56}
{"gene symbol": "ZNF426 (zinc finger protein 426)", "mean correlation with KSR1 profile": -0.513, "mean distance from KSR1 profile": 1.75}
{"gene symbol": "EDN3 (endothelin 3)", "mean correlation with KSR1 profile": 0.128, "mean distance from KSR1 profile": 1.57}
{"gene symbol": "NEUROD1 (neuronal differentiation 1)", "mean correlation with KSR1 profile": 0.589, "mean distance from KSR1 profile": 1.31}
{"gene symbol": "CITED2 (Cbp/p300 interacting transactivator with ED-rich tail 2)", "mean correlation with KSR1 profile": 0.573, "mean distance from KSR1 profile": 1.88}
{"gene symbol": "IGLL1 (immunoglobulin lambda like polypeptide 1)", "mean correlation with KSR1 profile": -0.291, "mean distance from KSR1 profile": 3.38}
{"gene symbol": "ANKFY1 (ankyrin repeat and FYVE domain containing 1)", "mean correlation with KSR1 profile": -0.2, "mean distance from KSR1 profile": 4.38}
{"gene symbol": "SCAMP1", "mean correlation with KSR1 profile": -0.182, "mean distance from KSR1 profile": 2.68}
{"gene symbol": "RGS7 (regulator of G protein signaling 7)", "mean correlation with KSR1 profile": 0.332, "mean distance from KSR1 profile": 3.29}
{"gene symbol": "CPO (carboxypeptidase O)", "mean correlation with KSR1 profile": 0.0345, "mean distance from KSR1 profile": 3.06}
{"gene symbol": "SMC2 (structural maintenance of chromosomes 2)", "mean correlation with KSR1 profile": -0.213, "mean distance from KSR1 profile": 2.38}
{"gene symbol": "RNASE3 (ribonuclease A family member 3)", "mean correlation with KSR1 profile": -0.141, "mean distance from KSR1 profile": 2.36}
{"gene symbol": "GRAPL-AS1 (GRAPL antisense RNA 1)", "mean correlation with KSR1 profile": 0.156, "mean distance from KSR1 profile": 3.26}
